The values below come from publication PMC7762940.

Test [1] concerns the target T1, TubR of pBc10987 (centromere-binding protein) (Bacillus cereus (plasmid pBc10987)) (UniProt Q74P25).
T1 sequence: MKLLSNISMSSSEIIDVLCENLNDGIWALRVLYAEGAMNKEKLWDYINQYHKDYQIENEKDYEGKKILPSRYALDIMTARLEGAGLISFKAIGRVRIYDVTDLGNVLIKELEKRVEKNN
As to the kind of experiment: native gel or EMSA; 32P-labelled pro2 DNA (65321-65577 nt, lacks BcY-binding sites) with TubR, BcY or both; 6% polyacrylamide gel; both purified. A general note: A gel shift assay detects complexes by their altered migration in electrophoresis.

Test [2] deals with T1, TubR of pBc10987 (centromere-binding protein) (Bacillus cereus (plasmid pBc10987)). The test can be described thus: native gel or EMSA; 32P-labelled pro12 DNA (65171-65577 nt); TubR preincubated with pro12, then BcY, BcYmut or BcYΔ added; both purified.

These are yes or no findings as the source states them, for the method shown. Binding can be weak; no strength is given.

“Full-length TubY from B. cereus (BcY) (Bacillus cereus (plasmid pBc10987))”: the binding result in test [1] is given as “binds”. “BcYΔ (TubY residues 1-182, lacks the C-terminal tail) (Bacillus cereus (plasmid pBc10987)) (domain or fragment)”: the binding entry in test [2] is on record as “binds weakly”.
